Test results: PubChem BioAssay AID1508600 (Functional Genomics Laboratory (NCATS/FGL), 2020)
Screen size: about 53,000 sequences; about 3,700 (7%) were called active.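 Rule for the calls: active = gene knockdowns whose robust z-score for IL-1 alpha signal is at least 2 or at most -2, so actives lie on both sides; inactive = the rest.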 The list shows a part of the results.

Assay: Components of the Cytosolic LPS Sensing Pathway: Gene Identification via Genome-wide siRNA Screen;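 note: robust z of the log signal after scaling to non-targeting control siRNA wells of the plate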
Details: RAW264.7 macrophages, IL-1a HTRF, actives lie on both sides, screened at 100 nM (by protocol), cells primed 5 h with Pam3CSK4 first
How it was run: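 Read-out: IL-1a HTRF on supernatant, divided by plate negative-control median ×100, log-transformed and converted to robust z-score. Cells were RAW264.7 given 100 nM siRNA, Pam3CSK4-primed 5 hours, then LipidA-transfected 24 hour.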

Sequence | z-score
GGCACUCAAUGGUGAGCAATT against Sipa1 | active: 2.03
GGAGUCAGUCCUUAAGCCUTT against Trim30a | inactive: -0.0793
GGCAUUGCUGGACUUUGAATT against Mvp | inactive: -1.71
GGAGAUCACAGAAAAGUAUTT against Pex19 | inactive: -0.0745
GCUAAAGAAAAGUGGAGACTT against Pbdc1 | inactive: 0.165
GGAAGAACAAAAAACCAUGTT against Sf3b2 | active: -2.14
GGGCUAAGGCAAAAACUGATT against Ankrd34a | inactive: -1.94
GGCCCACCGAGAGAAACUATT against Cpsf1 | inactive: -0.0828
GGAAAGUGAGGACAAAUAUTT against Cst8 | inactive: 0.808
CGUGGAACAUAAGAAUGGATT against Gapdhs | inactive: 0.269
GCUCAGACAUGUUCUUACCTT against Myl6b | inactive: 0.172
GGAAUAGAACGAAUUUCUGTT against Lsm11 | inactive: 0.64
GGUUAUUACACUCUACAAATT against Ceacam11 | inactive: 1.05
GCUCAGCAUAUUUGUACAUTT against Thbd | inactive: 0.643
GCUGAUCAACUACUUGAAUTT against Srek1 | inactive: 0.642
CGACAGUGUUAGCAUUAAATT against Pros1 | inactive: -0.901
GGAGGUGGACCAAAAUGUCTT against Prss42 | inactive: -1.17
GGUACCGGAAAGGAAGUGUTT against Grm1 | inactive: -0.467
GCCUUUCUACUUAUUACCATT against Map3k7 | inactive: -0.97
GCCCAGCUAACUUCCACCUTT against Mmp10 | inactive: -1.32
GGGCUUGUAGAUGUGCGUATT against Hic2 | active: 3.32
GGCUGAACAGCACCUCAUGTT against Trim54 | inactive: -0.313
GGCAUGUUCUAUUUUUUGATT against Yod1 | inactive: -0.148

Sequence | z-score
CCAUGCCAUGAGCAUCCAUTT against Bbs2 | inactive: 0.484
CCUCUUCGUUAAUUGGACATT against Fbxw2 | inactive: -0.136
GGAUGCGUUCUAUGUUGCGTT against Odc1 | inactive: 0.377
CCCGCACUCUUAGCAAUUATT against Gtpbp10 | inactive: -0.0268
GCUAUCCCUUUAUGUAACATT against Prl7b1 | inactive: -0.224
CCUGGGCCUUAACAAGAAGTT against Upf1 | inactive: -1.32
GGAGAUUUGCCGUAUGGAUTT against Wwox | inactive: -0.109
GGUCUGAGUUUUAAACAGUTT against Gmfb | inactive: 1.13
GGCCUGAAGAAGAUGCAGGTT against Rpl29 | inactive: 0.119
GCAAUAGAAUCACAUAGGATT against Glyctk | inactive: 1.35
CCCUAUGAUUCCGACAACCTT against Elmod1 | inactive: 1.8
GCGCAGGUUCAAUGUGGAUTT against Prodh | inactive: 1.72
GGCAAUGGACGCAUCACCUTT against Fn1 | inactive: 0.505
GCCAAUAAGCGGAAAAGCATT against Zfp609 | inactive: -1.56
CGGAUAGCUUACUAAUCUUTT against Gas7 | inactive: -1.58
GGAUUUCAACGUGGCAGUUTT against Prss23 | inactive: -0.0724
CCUGGCAAGGUUACGAAGUTT against Gsta3 | inactive: 1.12
GGUUAUCAGUUGCAUUGUUTT against Gpr37l1 | inactive: 0.809
CGCAGAGUUCUAGUAACUCTT against Tcfl5 | inactive: -0.751
GCCUUUAAUCAACCCAAGATT against Scd1 | inactive: -0.728
GCGGUUUUUUUGGAAGCCATT against Ehf | inactive: -0.427
GGACAGCUACUUAUUUCUUTT against Vmn1r56 | inactive: -1.88
GCGGCUAUCUGUAGUAGGUTT against Map3k2 | inactive: -0.132

Copied from the list:
z-score with GGCCUGAAGAAGAUGCAGGTT against Rpl29 is entered as inactive: 0.119
z-score with GGUCUGAGUUUUAAACAGUTT against Gmfb is entered as inactive: 1.13
z-score with GCUAUCCCUUUAUGUAACATT against Prl7b1 is entered as inactive: -0.224
z-score with CGCAGAGUUCUAGUAACUCTT against Tcfl5 is entered as inactive: -0.751

Carrying on.

Sequence | z-score
GCUGCUGUUUAAUUGCUGUTT against Olfr807 | inactive: -0.201
GGAUGAUUUAUGGUUACUGTT against Vmn1r80 | active: 2.01
CGUUUCUCAGCAAACUUACTT against Il17a | inactive: 0.669
GGUACUCCAGAAUAGAAGCTT against Mstn | inactive: 0.0165
GGCUCUGGCCAUAUUUUGGTT against Olfr549 | inactive: -1.44
GCCCUUUCCGUCUGAAAUCTT against Hydin | active: 2.06
GGUCCAAGUAGCUCUUCACTT against Olfr5 | inactive: -1.2
GGAACUUCUCAAAAGGCUGTT against Tspoap1 | inactive: -0.0418
CGGCACUCGAAAGUUUUUATT against Rassf2 | inactive: 0.271
GGGCCUCUUCAUCUUUCUCTT against Adgrd1 | inactive: 0.549
GGAGUUAUACAGGUUUAUGTT against Nup155 | inactive: -1.05
GGACUUCAACAAGACCAUCTT against Proser2 | inactive: 1.55
GGUCUUUUGUAAAAACCCUTT against Sytl2 | inactive: 0.099
CCAGUGGAGUAAACUGUAATT against Ltbp1 | active: 2.24
GGAAAGACAAAAUCUAUGATT against Peg3 | inactive: -0.777
GGAUCAUAUGCAGAAAUCUTT against Zfp62 | inactive: 0.993
GGAGGAGUUUCGCUACGGATT against Sars2 | inactive: -0.00587
GGAAUACCAGACCACACUGTT against Rab7b | inactive: 0.275
GGUGUCAAGAAGAAUGUCCTT against Megf11 | active: 3.2
GGCUCAAAAAGAAAGAGUUTT against Myh2 | inactive: -0.924
CCUCAACACUCAGCUCAAUTT against Ifna14 | active: -2.67
CCUUCGAGAUUGAACUGUATT against Numbl | inactive: 0.192
GGCUGAUGUGGUGUGCUAUTT against Aoah | inactive: -0.0133
